Measured values published in the supplement of paper PMC12819154, “High-throughput peptide-centric local stability assay extends protein–ligand identification to membrane proteins, tissues and bacteria” (Nature Structural & Molecular Biology, 2025).
Some of the results follow. Small differences around the control level are noise.

Amino acid sequences for entries named in this document (tags omitted). A change or cut given only in a name is not applied to a line headed by its entry.
UniProt Q9NXA8: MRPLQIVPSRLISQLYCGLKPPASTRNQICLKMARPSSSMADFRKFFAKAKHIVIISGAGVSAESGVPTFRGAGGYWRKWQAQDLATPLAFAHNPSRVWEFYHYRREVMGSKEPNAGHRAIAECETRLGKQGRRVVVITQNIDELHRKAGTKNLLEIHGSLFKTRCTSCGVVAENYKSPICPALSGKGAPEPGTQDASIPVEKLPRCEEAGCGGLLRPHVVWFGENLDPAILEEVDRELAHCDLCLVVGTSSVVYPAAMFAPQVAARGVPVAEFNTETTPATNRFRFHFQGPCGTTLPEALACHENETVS
UniProt Q9P000, whole entry: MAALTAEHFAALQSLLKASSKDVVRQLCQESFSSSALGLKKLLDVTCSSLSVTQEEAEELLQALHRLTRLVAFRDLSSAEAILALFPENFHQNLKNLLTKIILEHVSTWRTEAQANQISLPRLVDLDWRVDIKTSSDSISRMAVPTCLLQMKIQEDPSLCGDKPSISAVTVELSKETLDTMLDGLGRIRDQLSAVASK
UniProt Q9NX63: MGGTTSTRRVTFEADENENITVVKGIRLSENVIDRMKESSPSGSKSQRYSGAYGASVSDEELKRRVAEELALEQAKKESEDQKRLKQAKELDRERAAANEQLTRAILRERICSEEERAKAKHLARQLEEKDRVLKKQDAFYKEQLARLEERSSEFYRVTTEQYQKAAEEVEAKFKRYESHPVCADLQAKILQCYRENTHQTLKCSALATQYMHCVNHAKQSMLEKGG
UniProt Q9UGP4: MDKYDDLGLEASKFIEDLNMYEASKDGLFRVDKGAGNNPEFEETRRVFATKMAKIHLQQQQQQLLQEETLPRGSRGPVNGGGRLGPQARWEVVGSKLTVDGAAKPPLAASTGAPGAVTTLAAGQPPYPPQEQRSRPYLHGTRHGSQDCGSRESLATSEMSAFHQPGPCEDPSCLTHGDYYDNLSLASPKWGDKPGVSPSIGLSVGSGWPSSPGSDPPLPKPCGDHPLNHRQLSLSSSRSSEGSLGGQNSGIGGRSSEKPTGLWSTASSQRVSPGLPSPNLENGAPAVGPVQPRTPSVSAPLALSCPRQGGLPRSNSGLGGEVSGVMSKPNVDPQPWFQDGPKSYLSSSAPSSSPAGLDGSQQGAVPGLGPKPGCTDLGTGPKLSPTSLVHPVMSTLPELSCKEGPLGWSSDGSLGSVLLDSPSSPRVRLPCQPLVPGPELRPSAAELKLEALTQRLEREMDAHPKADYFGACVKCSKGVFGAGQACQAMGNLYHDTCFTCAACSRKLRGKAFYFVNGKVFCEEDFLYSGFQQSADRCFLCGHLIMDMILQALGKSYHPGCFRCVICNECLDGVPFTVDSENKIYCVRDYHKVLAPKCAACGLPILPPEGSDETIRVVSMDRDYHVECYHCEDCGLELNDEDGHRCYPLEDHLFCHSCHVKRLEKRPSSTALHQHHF
UniProt Q9UDW3: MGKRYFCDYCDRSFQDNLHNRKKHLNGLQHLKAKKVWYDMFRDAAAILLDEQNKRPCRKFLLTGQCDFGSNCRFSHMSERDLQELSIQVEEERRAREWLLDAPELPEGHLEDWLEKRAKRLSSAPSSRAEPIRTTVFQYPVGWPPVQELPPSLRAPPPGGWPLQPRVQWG
UniProt Q9NY93: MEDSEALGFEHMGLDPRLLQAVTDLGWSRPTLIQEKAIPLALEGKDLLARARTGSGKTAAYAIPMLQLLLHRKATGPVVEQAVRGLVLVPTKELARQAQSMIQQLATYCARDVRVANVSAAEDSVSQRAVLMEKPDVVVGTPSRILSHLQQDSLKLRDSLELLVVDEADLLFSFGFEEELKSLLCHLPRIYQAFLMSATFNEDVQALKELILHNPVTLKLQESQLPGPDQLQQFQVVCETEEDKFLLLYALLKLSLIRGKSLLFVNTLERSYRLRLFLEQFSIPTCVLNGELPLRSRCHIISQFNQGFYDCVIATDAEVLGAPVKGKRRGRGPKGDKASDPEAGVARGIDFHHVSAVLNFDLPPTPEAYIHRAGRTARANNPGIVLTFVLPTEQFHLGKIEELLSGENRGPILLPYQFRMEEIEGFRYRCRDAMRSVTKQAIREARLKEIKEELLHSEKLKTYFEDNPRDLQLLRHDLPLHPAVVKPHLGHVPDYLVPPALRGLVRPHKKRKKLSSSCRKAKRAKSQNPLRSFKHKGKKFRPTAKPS
UniProt Q9P1W9: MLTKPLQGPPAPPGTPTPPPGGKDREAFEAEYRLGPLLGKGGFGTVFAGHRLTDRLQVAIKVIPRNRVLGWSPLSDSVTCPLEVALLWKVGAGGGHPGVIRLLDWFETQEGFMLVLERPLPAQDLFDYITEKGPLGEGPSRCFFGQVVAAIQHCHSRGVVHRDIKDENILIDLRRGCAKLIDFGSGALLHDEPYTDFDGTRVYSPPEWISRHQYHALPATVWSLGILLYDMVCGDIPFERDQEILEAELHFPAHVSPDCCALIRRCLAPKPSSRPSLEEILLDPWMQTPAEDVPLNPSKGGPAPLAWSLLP
UniProt Q9NZD8: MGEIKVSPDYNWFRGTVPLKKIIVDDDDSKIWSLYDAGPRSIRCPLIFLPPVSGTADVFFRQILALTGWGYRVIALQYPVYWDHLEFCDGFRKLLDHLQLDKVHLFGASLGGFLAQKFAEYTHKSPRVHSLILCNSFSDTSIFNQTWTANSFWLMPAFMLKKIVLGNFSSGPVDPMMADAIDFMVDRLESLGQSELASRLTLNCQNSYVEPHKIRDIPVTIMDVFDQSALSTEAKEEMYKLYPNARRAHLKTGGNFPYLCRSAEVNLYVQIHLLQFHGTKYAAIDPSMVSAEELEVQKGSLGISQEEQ
UniProt Q9NXR8, whole entry: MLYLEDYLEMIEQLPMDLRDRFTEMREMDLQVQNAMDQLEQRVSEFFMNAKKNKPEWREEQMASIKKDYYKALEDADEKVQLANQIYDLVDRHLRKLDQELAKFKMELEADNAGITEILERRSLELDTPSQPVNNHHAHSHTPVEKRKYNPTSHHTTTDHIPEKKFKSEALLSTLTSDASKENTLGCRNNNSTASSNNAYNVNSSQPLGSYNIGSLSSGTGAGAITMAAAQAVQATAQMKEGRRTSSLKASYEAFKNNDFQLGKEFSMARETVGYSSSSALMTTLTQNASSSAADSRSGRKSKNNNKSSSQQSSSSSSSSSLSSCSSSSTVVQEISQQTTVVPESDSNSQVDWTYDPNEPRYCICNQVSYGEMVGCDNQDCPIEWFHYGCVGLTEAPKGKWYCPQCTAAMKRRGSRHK
UniProt Q9P107: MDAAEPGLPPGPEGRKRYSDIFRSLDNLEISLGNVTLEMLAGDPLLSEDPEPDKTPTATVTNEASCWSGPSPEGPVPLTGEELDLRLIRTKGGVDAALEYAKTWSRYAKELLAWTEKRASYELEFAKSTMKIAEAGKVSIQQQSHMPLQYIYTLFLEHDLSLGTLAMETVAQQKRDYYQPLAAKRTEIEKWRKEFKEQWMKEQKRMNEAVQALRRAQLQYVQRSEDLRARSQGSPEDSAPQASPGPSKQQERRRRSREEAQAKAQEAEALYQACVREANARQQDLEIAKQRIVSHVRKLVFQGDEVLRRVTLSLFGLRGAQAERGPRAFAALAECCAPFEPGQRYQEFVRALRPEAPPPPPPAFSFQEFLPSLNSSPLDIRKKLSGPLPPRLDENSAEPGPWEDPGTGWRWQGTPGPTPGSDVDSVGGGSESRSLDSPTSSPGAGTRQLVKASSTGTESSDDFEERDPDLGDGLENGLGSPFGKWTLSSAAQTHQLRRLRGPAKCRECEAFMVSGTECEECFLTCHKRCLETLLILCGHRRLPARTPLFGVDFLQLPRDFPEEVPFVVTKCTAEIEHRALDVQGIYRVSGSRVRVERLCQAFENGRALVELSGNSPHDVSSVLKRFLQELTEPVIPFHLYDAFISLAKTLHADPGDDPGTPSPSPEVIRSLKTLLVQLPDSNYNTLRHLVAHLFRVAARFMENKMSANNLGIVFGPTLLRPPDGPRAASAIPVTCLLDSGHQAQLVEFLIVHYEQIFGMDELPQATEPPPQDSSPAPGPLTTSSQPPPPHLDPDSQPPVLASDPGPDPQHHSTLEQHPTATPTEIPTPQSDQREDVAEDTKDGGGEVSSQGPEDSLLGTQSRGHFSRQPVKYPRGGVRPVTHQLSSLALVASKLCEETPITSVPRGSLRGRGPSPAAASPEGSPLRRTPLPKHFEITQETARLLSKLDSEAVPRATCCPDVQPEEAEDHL
UniProt Q9UEE9, whole entry: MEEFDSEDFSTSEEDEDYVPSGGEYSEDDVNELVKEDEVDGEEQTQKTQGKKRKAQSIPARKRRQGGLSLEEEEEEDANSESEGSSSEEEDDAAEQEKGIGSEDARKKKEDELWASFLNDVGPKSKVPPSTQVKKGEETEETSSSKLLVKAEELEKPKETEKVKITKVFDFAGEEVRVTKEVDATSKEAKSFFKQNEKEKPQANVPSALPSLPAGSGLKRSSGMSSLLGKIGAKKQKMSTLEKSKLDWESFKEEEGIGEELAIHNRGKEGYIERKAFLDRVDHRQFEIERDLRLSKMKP
UniProt Q9NZV7: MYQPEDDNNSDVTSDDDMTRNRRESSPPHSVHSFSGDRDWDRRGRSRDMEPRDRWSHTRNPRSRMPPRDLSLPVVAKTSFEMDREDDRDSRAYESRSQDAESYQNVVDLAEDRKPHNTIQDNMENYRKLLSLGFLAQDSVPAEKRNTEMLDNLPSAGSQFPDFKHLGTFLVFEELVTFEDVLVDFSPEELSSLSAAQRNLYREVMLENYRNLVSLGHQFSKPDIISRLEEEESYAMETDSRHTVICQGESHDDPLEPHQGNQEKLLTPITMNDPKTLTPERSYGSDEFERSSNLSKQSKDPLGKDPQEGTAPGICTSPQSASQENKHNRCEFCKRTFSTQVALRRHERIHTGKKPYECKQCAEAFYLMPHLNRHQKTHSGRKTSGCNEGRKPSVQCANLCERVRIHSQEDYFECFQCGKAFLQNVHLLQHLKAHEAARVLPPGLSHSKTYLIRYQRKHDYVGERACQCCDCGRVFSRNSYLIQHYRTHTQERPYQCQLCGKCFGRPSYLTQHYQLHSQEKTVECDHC
UniProt Q9P2R6: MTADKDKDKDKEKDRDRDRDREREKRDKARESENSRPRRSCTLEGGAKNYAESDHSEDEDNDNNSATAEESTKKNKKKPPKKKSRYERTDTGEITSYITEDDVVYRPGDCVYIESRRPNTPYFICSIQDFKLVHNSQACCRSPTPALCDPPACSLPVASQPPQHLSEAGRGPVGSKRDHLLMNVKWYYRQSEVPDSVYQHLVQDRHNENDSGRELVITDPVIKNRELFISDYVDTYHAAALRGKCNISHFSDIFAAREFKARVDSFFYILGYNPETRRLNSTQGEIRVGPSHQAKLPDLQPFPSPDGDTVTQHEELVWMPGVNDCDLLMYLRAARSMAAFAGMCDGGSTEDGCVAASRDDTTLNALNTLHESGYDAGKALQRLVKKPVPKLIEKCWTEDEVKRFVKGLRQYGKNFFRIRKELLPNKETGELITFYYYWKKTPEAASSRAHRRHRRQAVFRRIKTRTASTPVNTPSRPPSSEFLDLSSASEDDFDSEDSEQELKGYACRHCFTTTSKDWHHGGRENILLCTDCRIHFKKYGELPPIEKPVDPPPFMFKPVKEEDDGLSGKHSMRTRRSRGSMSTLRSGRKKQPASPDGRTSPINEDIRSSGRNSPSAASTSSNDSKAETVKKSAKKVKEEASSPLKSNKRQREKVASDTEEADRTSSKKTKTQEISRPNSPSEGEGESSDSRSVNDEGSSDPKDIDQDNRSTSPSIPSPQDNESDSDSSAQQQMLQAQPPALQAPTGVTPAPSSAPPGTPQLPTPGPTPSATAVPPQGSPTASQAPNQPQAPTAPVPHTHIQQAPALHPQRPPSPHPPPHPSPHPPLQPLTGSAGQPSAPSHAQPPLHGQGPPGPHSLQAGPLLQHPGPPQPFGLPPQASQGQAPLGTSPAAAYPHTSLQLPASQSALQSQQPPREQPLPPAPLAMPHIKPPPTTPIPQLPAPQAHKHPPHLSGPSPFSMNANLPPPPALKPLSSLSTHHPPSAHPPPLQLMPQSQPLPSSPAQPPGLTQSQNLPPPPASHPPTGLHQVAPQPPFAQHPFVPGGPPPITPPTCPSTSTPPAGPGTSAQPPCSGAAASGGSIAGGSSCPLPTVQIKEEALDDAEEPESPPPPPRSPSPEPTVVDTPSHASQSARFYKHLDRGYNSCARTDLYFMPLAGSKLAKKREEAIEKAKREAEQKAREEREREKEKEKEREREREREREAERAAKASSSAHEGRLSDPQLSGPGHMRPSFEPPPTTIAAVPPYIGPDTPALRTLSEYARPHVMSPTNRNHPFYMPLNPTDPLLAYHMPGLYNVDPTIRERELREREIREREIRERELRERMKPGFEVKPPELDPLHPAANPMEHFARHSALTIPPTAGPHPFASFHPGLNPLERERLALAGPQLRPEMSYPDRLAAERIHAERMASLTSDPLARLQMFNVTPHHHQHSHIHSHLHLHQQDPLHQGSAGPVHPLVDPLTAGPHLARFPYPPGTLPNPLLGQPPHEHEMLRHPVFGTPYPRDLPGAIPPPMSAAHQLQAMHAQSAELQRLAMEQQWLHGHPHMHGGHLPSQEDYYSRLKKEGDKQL

The targets below were run with Cc1nc(Nc2ncc(C(=O)Nc3c(C)cccc3Cl)s2)cc(N2CCN(CCO)CC2)n1 [dasatinib] (assay: log2 fold change of tryptic peptide abundance, ligand vs vehicle (limited proteolysis) (log2 ratio); higher = more trypsin-susceptible (destabilized)). Conditions: ligand concentration: 5 uM; sample: K562 cleared lysate.
“TUBA8 (peptide sequence: QLFHPEQLITGKEDAANNYAR, peptide start residue: 85) (UniProt Q9NY65)” gave a log2 fold change of 0.0857. For “SIRT5 (peptide sequence: RVVVITQNIDELHR, peptide start residue: 134) (UniProt Q9NXA8)”, the log2 fold change was -0.368. For “ACTR10 (peptide sequence: CGFAGETGPR, peptide start residue: 27) (UniProt Q9NZ32)”, the log2 fold change was 0.655. With “COMMD9 (peptide sequence: MAVPTCLLQMK, peptide start residue: 142) (UniProt Q9P000)” the log2 fold change was 0.117. Work on “MRPL35 (peptide sequence: MTTSFWK, peptide start residue: 161) (UniProt Q9NZE8)” yielded a log2 fold change of -0.0259. “UniProt Q9NX38 (peptide sequence: RINATTATS, peptide start residue: 173)” gave a log2 fold change of 0.436. Target “CHCHD3 (peptide sequence: VAEELALEQAK, peptide start residue: 66) (UniProt Q9NX63)” has a log2 fold change of 0.394. With “LIMD1 (peptide sequence: ADYFGACVKCSK, peptide start residue: 466) (UniProt Q9UGP4)” the log2 fold change was 0.251. “STK39 (peptide sequence: EASSCAVNLVLR, peptide start residue: 446) (UniProt Q9UEW8)” showed a log2 fold change of -0.387. In the case of “NUDT4 (peptide sequence: LLGIFENQDRK, peptide start residue: 80) (UniProt Q9NZJ9)”, the log2 fold change is reported as -0.219. In the case of “NDOR1 (peptide sequence: EPDVSSPTRLPQPCSMR, peptide start residue: 280) (UniProt Q9UHB4)”, the log2 fold change is reported as -0.648. “CTTNBP2NL (peptide sequence: NLANTANPR, peptide start residue: 535) (UniProt Q9P2B4)” gave a log2 fold change of 0.217. For “ZMAT5 (peptide sequence: DLQELSIQVEEERR, peptide start residue: 81) (UniProt Q9UDW3)”, the log2 fold change was 0.388. For “DDX56 (peptide sequence: LKEIKEELLHSEK, peptide start residue: 447) (UniProt Q9NY93)”, the log2 fold change was -0.256. “PIM2 (peptide sequence: VYSPPEWISR, peptide start residue: 202) (UniProt Q9P1W9)” gave a log2 fold change of 0.238. In the case of “DAXX (peptide sequence: KQTGSGPLGNSYVER, peptide start residue: 637) (UniProt Q9UER7)”, the log2 fold change is reported as -0.13. “VPS18 (peptide sequence: ACVHVYK, peptide start residue: 712) (UniProt Q9P253)” gave a log2 fold change of 0.277. “SPG21 (peptide sequence: LTLNCQNSYVEPHKIR, peptide start residue: 200) (UniProt Q9NZD8)” gave a log2 fold change of 0.747. Target “UniProt Q9UHA3 (peptide sequence: ELTVDNSFEFEKR, peptide start residue: 62)” has a log2 fold change of 0.104. Target “ANKFY1 (peptide sequence: AEEEVAKLEK, peptide start residue: 2) (UniProt Q9P2R3)” has a log2 fold change of 0.207. With “UniProt Q9NX55 (peptide sequence: KEDLELIMTEMEISR, peptide start residue: 84)” the log2 fold change was 0.0727. Work on “NCDN (peptide sequence: RIFDAVGFTFPNR, peptide start residue: 75) (UniProt Q9UBB6)” yielded a log2 fold change of 0.179. In the case of “COQ3 (peptide sequence: SFDPVLDKR, peptide start residue: 189) (UniProt Q9NZJ6)”, the log2 fold change is reported as 0.168. With “ING3 (peptide sequence: VSEFFMNAK, peptide start residue: 43) (UniProt Q9NXR8)” the log2 fold change was 0.275. Target “GMIP (peptide sequence: VTLSLFGLR, peptide start residue: 310) (UniProt Q9P107)” has a log2 fold change of -0.413. In the case of “CFDP1 (peptide sequence: KAQSIPAR, peptide start residue: 54) (UniProt Q9UEE9)”, the log2 fold change is reported as 0.21. Target “UniProt Q9NZV7 (peptide sequence: EVMLENYR, peptide start residue: 51)” has a log2 fold change of -0.0114. “WARS2 (peptide sequence: SDPDKLATVR, peptide start residue: 230) (UniProt Q9UGM6)” was tested, and the log2 fold change was 0.1. “METTL1 (peptide sequence: VSDYVQDR, peptide start residue: 112) (UniProt Q9UBP6)” was tested, and the log2 fold change was 0.464. Work on “MBD2 (peptide sequence: AFIVTDEDIRKQEER, peptide start residue: 361) (UniProt Q9UBB5)” yielded a log2 fold change of -0.445. Work on “HEATR5B (peptide sequence: ESATTMEK, peptide start residue: 1412) (UniProt Q9P2D3)” yielded a log2 fold change of 0.298. With “CPSF2 (peptide sequence: NNPFQFR, peptide start residue: 300) (UniProt Q9P2I0)” the log2 fold change was 0.136. With “UniProt Q9P2J8 (peptide sequence: SSSLIIHQR, peptide start residue: 317)” the log2 fold change was -0.848. Work on “RERE (peptide sequence: MASLTSDPLAR, peptide start residue: 1406) (UniProt Q9P2R6)” yielded a log2 fold change of -0.116. “UniProt Q9P2K6 (peptide sequence: LVLDFINAGGAR, peptide start residue: 64)” was tested, and the log2 fold change was -0.376. For “MTRF1L (peptide sequence: LYSMHLEEEINKR, peptide start residue: 295) (UniProt Q9UGC7)”, the log2 fold change was -0.134. For “CHD7 (peptide sequence: THTITIESEGK, peptide start residue: 1495) (UniProt Q9P2D1)”, the log2 fold change was 0.539.
